# Measurements as given in PubChem BioAssay AID1487 (National Center for Advancing Translational Sciences (NCATS), 2009).
# Some of the results follow. The main result of the screen is listed elsewhere. These columns were measured beside it and carry no call. Most of these compounds were active or inconclusive in the main read-out, so they are no random draw. The note in brackets gives the kind of curve behind each potency; many fits are weak.
# Assay: qHTS Assay for Modulators of Lamin A Splicing
# Settings: HeLa LMNA splicing GFP/RFP minigene ratio, 48 h
# Method in brief: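 S3 HeLa stable clones carrying a lamin A-EGFP splicing minigene plus DsRed2 were seeded at 600 cells/well in Opti-MEM with 2% FBS, pin-dosed and incubated 48 h at 37°C. Acumen cytometry (488 nm) gave the GFP/RFP total-intensity ratio.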
# [1] = measured here: GFP splicing reporter channel
# [2] = measured here: RFP viability control channel
SMILES,AC50 [1],AC50 [2]
Cc1ccc2sc(NC(=O)c3ccc4c(c3)OCCO4)nc2c1C,"28.2 µM [rising, partial curve, poor fit]","35.5 µM [rising, partial curve]"
COc1ccc(NC(=O)CN2c3cccc4cccc(c34)S2(=O)=O)c(OC)c1,–,"12.6 µM [rising, single point]"
CCN(CC)CCCNC(=O)c1nn(C)c2c1CS(=O)(=O)c1ccccc1-2,"35.5 µM [falling, single point]",–
Cc1ccccc1Cn1c(CN2CCC(C(=O)NCCc3ccccc3)CC2)cc2ccccc21,"6.31 µM [falling, full curve, poor fit]",–
Cc1ccc(C(=O)NNC(=S)Nc2cccc(Cl)c2Cl)cc1[N+](=O)[O-],–,"12.6 µM [rising, single point]"
NC(=O)COC(=O)c1ccc(-c2ccc(O)cc2)cc1,"1.58 µM [rising, full curve, poor fit]","0.282 µM [rising, full curve]"
CCN(CC)S(=O)(=O)c1cccc(NC(=O)COC(=O)CCC(=O)c2cccs2)c1,"0.631 µM [rising, full curve, poor fit]",–
COCCCNc1oc(-c2ccc(COc3ccc(Cl)cc3)o2)nc1C#N,–,"11.2 µM [rising, single point]"
c1ccc(-c2n[nH]c3c2CCC3)cc1,"5.01 µM [falling, full curve]","5.01 µM [falling, full curve]"
COC(=O)c1ccccc1NC(=O)Cn1c(-c2nonc2N)nc2ccccc21,–,"2.51 µM [rising, full curve]"
O=C1/C(=C/c2ccccc2[N+](=O)[O-])COc2ccccc21,–,"15.8 µM [rising, partial curve]"
Cc1nn(-c2ccccc2)c(C)c1/C=N/NC(=O)c1cc(-c2ccccc2)n[nH]1,–,"0.794 µM [rising, full curve, poor fit]"
CCOC(=O)c1c(S(=O)(=O)N2CCCC(C(=O)Nc3cccc(C)n3)C2)c(C)n(C)c1C (stereo not given),–,"3.55 µM [falling, partial curve]"
COc1ccc(CNC(=O)CSc2nnc(-c3cccnc3)n2N)cc1,"0.158 µM [falling, full curve, poor fit]",–
CN(C)c1nc(N(C)C)n(C(=O)c2cccs2)n1,"0.0501 µM [falling, full curve, poor fit]","0.00708 µM [falling, full curve, poor fit]"
COc1ccc(Cn2ccc3nc(C)c(C(=O)NCc4ccc(F)cc4)cc3c2=O)cc1,"0.0398 µM [rising, full curve, poor fit]","0.708 µM [rising, full curve, poor fit]"
Cn1cc(C2N3CC4(C)CN2CC(C)(C3)C4=O)c2ccccc21 (stereo not given),"35.5 µM [falling, single point]","35.5 µM [falling, partial curve]"
O=c1oc2c(CN3CCN(CCO)CC3)c(O)ccc2cc1-c1ccccc1,"0.126 µM [rising, full curve, poor fit]","0.316 µM [rising, partial curve, poor fit]"
COCCn1c(SCC(=O)Nc2ccc3c(c2)OCCO3)nc2c(c1=O)SC(C)C2 (stereo not given),–,"7.94 µM [rising, partial curve, poor fit]"
N#CC1=C2C=Cc3ccccc3N2CCCC1=O,–,"0.708 µM [rising, partial curve]"
CCOC(=O)c1ccc(NC(=O)CCc2nc(-c3ccc(C)cc3)no2)cc1,–,"17.8 µM [rising, single point]"
Nc1c(-c2ccccc2)nc(Cl)nc1-c1ccccc1,"35.5 µM [rising, single point]","35.5 µM [rising, single point]"
C=CCn1c(CCCOc2ccc(Cl)cc2Cl)n[nH]c1=S,–,"17.8 µM [rising, single point]"
Cc1nn(-c2ccccc2)c(Cl)c1/C=C/C(=O)c1ccccc1,"20 µM [falling, single point]","25.1 µM [falling, single point]"
Cc1ccc(CNC(=O)C23CN(Cc4ccccc4)CC2C(c2ccc([N+](=O)[O-])cc2)=NO3)cc1 (stereo not given),–,"8.91 µM [rising, partial curve, poor fit]"
CSc1nc(-c2ccccc2)c(C#N)c(=O)n1C,–,"0.00794 µM [falling, full curve, poor fit]"
O=[N+]([O-])c1cccc(-c2nc(Oc3ccc(Cl)cc3)c3ccccc3n2)c1,"2.51 µM [rising, partial curve, poor fit]","2.24 µM [rising, partial curve, poor fit]"
CCc1c(C)nc2ncnn2c1N1CCC(C(=O)N2CCN(c3ccc(F)cc3)CC2)CC1,"11.2 µM [rising, partial curve, poor fit]","35.5 µM [rising, single point]"

SMILES,AC50 [1],AC50 [2]
Cc1nc2ccn(Cc3cccs3)c(=O)c2cc1C(=O)Nc1ccccc1,"0.0355 µM [falling, full curve, poor fit]",–
COc1ccc(-n2c(O)c(/C=N/NS(=O)(=O)c3cc(C)ccc3C)c3ccccc3c2=O)cc1OC,"11.2 µM [falling, partial curve, poor fit]",–
CC1=C(C(=O)NCc2ccc(Cl)cc2)C2(CCCCC2)OC1=O,–,"4.47 µM [falling, full curve, poor fit]"
Cc1nn(CC(=O)Nc2ccc3c(c2)oc2ccccc23)c(=O)c2ccccc12,–,"1.58 µM [rising, partial curve, poor fit]"
Cn1ccsc1=NC(=O)c1ccc(Cl)cc1,"2.82 µM [falling, partial curve, poor fit]","8.91 µM [falling, partial curve, poor fit]"
COc1ccc(NS(=O)(=O)c2ccc3[nH]c4c(c3c2)CCCC4)cc1Cl,"20 µM [falling, single point]","35.5 µM [falling, single point]"
COc1ccc(CCN2C(=O)CS/C2=N/NC(=O)c2ccccc2F)cc1OC,–,"35.5 µM [rising, single point]"
C(=C\c1ccco1)/C1=NN(c2ccccc2)C(c2ccco2)C1 (stereo not given),–,"31.6 µM [rising, single point]"
CSc1cccc(CN2CCCC(CNC(=O)c3ccc(F)cc3)C2)c1 (stereo not given),"0.0891 µM [falling, full curve, poor fit]","0.1 µM [falling, full curve, poor fit]"
CS(=O)(=O)N1CCN(c2ccccc2NC(=S)NC(=O)c2cccs2)CC1,"3.16 µM [rising, partial curve]",–
COc1ccccc1-c1nc(N(C)C)c2ccccc2n1,"12.6 µM [falling, partial curve]","12.6 µM [falling, single point]"
COc1cc(Cl)c(C)cc1NC(=O)CNC(C)c1ccccc1OC (stereo not given),"11.2 µM [falling, partial curve]",–
COc1ccc(Cc2c(O)nc(SCC(=O)c3ccc(OC)cc3)[nH]c2=O)cc1,–,"28.2 µM [rising, partial curve, poor fit]"
COc1ccc(OC)c(S(=O)(=O)N2c3cc(F)ccc3CCC2C)c1 (stereo not given),"10 µM [rising, partial curve]","35.5 µM [rising, single point]"
COc1cc2c(cc1OC)-c1c(OC)c(OC)cc3ccnc(c13)C2=O,–,"3.55 µM [rising, single point]"
CN(C)c1ccc(-c2nc3ccccn3c2/N=C/c2ccc(Br)cc2)cc1,"31.6 µM [rising, single point]",–
Cc1cc(C)n(-c2ccc(C(=O)Nc3ccc(C)c(S(=O)(=O)N(C)C)c3)cc2)n1,–,"11.2 µM [rising, partial curve]"
COc1c2c(nc3ccccc13)OC(C(C)(O)CO)C2 (stereo not given),–,"5.62 µM [falling, single point]"
COc1cccc(C(=O)Nc2ccc(Cl)c(C(F)(F)F)c2)c1,"14.1 µM [rising, single point]","12.6 µM [rising, partial curve, poor fit]"
Cc1ccc(S(=O)(=O)CCC(=O)Nc2ccc3nc(C)sc3c2)cc1,–,"11.2 µM [rising, partial curve]"
O=c1[nH]cnc2sc(-c3ccccc3)cc12,–,"12.6 µM [rising, single point]"
COc1ccc(C2SCCN2S(=O)(=O)c2ccccc2)cc1 (stereo not given),"0.00447 µM [falling, full curve, poor fit]","0.00447 µM [falling, full curve, poor fit]"
CCOC(=O)c1cn(CC)c2ccc(Br)cc2c1=O,–,"0.0112 µM [falling, full curve, poor fit]"
CCc1nn2c(=O)cc(COC(=O)c3ccco3)nc2s1,"0.00282 µM [falling, full curve]","0.00316 µM [falling, full curve, poor fit]"
Cc1cc(=O)oc2cc(OCCSCCN3CCCCC3)ccc12,–,"0.00447 µM [falling, full curve, poor fit]"
CC1CCC(NC(=O)COc2ccc(C(=O)c3ccccc3)cc2)CC1 (stereo not given),"0.708 µM [rising, full curve]","11.2 µM [rising, partial curve]"
COc1ccc(CNS(=O)(=O)NCc2ccccc2)cc1,"5.62 µM [falling, full curve, poor fit]",–

# At a glance, part of the list above.
SMILES,AC50 [1],AC50 [2]
COc1ccc(NS(=O)(=O)c2ccc3[nH]c4c(c3c2)CCCC4)cc1Cl,"20 µM [falling, single point]","35.5 µM [falling, single point]"
COc1ccc(CCN2C(=O)CS/C2=N/NC(=O)c2ccccc2F)cc1OC,–,"35.5 µM [rising, single point]"
C(=C\c1ccco1)/C1=NN(c2ccccc2)C(c2ccco2)C1 (stereo not given),–,"31.6 µM [rising, single point]"
CSc1cccc(CN2CCCC(CNC(=O)c3ccc(F)cc3)C2)c1 (stereo not given),"0.0891 µM [falling, full curve, poor fit]","0.1 µM [falling, full curve, poor fit]"
CS(=O)(=O)N1CCN(c2ccccc2NC(=S)NC(=O)c2cccs2)CC1,"3.16 µM [rising, partial curve]",–
